In article PMC4869123 (Scientific Reports, 2016):
These are yes or no findings as the source states them, for the method shown. Sequences can lack the tags named with a protein.

Amino acid sequences for entries named in this document (tags omitted). A change or cut given only in a name is not applied to a line headed by its entry.
UniProt Q96F46: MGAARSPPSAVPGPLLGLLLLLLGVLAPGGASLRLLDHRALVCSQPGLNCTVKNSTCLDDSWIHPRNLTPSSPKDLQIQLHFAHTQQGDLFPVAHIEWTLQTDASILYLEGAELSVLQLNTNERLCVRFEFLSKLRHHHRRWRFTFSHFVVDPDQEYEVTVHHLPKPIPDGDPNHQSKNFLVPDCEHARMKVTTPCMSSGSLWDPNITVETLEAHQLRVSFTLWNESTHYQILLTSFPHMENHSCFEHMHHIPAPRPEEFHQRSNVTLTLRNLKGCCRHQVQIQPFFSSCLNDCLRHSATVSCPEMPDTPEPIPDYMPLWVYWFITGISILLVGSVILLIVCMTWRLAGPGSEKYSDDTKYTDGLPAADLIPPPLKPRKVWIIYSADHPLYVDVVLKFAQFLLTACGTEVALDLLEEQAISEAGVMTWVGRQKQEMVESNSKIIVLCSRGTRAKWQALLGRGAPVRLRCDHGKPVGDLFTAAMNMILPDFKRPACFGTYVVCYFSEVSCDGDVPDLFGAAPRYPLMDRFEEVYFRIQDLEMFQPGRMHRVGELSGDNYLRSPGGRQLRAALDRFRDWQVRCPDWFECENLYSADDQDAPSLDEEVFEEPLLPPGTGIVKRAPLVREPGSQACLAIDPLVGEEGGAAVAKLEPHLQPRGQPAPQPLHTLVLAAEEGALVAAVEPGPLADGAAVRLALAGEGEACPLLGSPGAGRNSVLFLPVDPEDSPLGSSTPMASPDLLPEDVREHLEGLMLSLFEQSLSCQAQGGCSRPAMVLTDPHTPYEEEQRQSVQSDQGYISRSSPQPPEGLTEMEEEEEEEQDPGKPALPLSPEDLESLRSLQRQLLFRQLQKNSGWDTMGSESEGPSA

Molecular target: IL-17RA (immobilized, SPR binding assay) (human) (UniProt Q96F46)
Assay: SPR; Biacore 3000; biotinylated protein captured on a streptavidin chip (about 2500 to 3500 RUs); peptide injected at 50 μl/min, 180 s association, at least 600 s dissociation; 10 mM HEPES pH 7.4, 150 mM NaCl, 0.01% P20, 3% DMSO; single site model, global fit; both purified

- binding: no binding (tested: 100 nM)
Binder: IHVTIPADLWDWINK (N-terminal acetyl) [high affinity IL-17A peptide antagonist (HAP)]
